# Screen size: about 330,000 compounds; about 7,700 (2.3%) were called active. Inconclusive results, whose numbers are uncertain, are shown with a selection of clear calls. Calls follow the shape of the dose curve; as a rule, active = well fitted inhibition curve with a large enough effect; inconclusive = small, poorly fitted or top-dose-only effect, or effect the other way; inactive = flat fitted curve, though single readings scatter. Where the call is inconclusive, the potency comes from a doubtful curve fit.
# Experiment: qHTS screen for small molecules that inhibit ELG1-dependent DNA repair in human embryonic kidney (HEK293T) cells expressing luciferase-tagged ELG1; also: nearly all actives have a fitted effect of over 55% in size
# Conditions: HEK293T ELG1-luciferase reporter, luminescence, 16 h, DNA damage induced by 5-fluorouridine; activity change, negative = inhibition: at 46.1 µM (top of the series)
# Outline: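 Overnight (16 hr) co-exposure of 2,000 cells/well to 5-fluorouridine and compound at 37 °C preceded detection. Luciferase was quantified via ONE-Glo luminescence; loss of signal denotes inhibition.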
# % is scaled to controls: 0 for no effect and ±100 for the full control effect; potency is read from the fitted curve at half-maximal effect.
SMILES,Potency,"activity change, negative = inhibition"
O=C(Cn1nnc(-c2ccc(S(=O)(=O)N3CCCC3)cc2)n1)Nc1ccccc1-n1cccc1,"inconclusive: 23.1 µM [inhibitor, partial curve, poor fit]",
Cc1c(C(=O)N2CCC(C)CC2)oc2ccc3c(c12)C(O)CC1(CCCCC1)O3 (centres undefined),,inactive: 10.3%
O=C(Nc1ccc(S(=O)(=O)N2CCCC2)cc1)c1ccc(CN2CCOCC2)cc1,"inconclusive: 14.6 µM [inhibitor, partial curve, poor fit]",
CCOC(=O)C1(CC2CCCCO2)CCN(C(=O)Nc2ccccc2)CC1 (centres undefined),"inconclusive: 29.1 µM [activator, single point]",
O=c1[nH]c(C2CCN(S(=O)(=O)Cc3ccccc3)CC2)nc2c1nnn2Cc1ccccc1Cl,active: 25.9 µM,
CC(NC(=O)CN(C)CC(=O)Nc1ccc(F)c(F)c1F)c1ccccc1 (centres undefined),,inactive: -6.76%
O=C(Nc1ccc2c(c1)OCCO2)N1CCN(c2ccccc2)CC1,"inconclusive: 8.2 µM [activator, partial curve, poor fit]",
N#CC(c1ccc(Cl)cc1)c1ccc2c(C(F)(F)F)cc(C(F)(F)F)nc2n1 (centres undefined),"inconclusive: 6.51 µM [inhibitor, partial curve]",
COc1ccc(Cn2c(=O)[nH]c3cc(OC)c(OC)cc3c2=O)cc1,,inactive: 2.91%
O=C(C[C@H]1C[C@H](C(=O)N2CCOCC2)[C@@]2(CCC3CCCC3)c3[nH]c4cc(-c5ccco5)ccc4c3CCN2C1=O)NCc1cccc(C(F)(F)F)c1,,inactive: 1.26%
CC(C)n1cnc2c(Nc3cccc(Cl)c3)nc(NCCCO)nc21,"inconclusive: 29.1 µM [inhibitor, single point]",
O=C(CSc1nnnn1C1CCCC1)Nc1ccc2c(c1)OCCO2,"inconclusive: 20.6 µM [activator, single point]",
CCC(=O)NC(=S)Nc1ccc(OC)cc1OC,"inconclusive: 32.6 µM [activator, single point]",
Cc1noc(C)c1NC(=O)N(C)C[C@@H]1Oc2ccc(NC(=O)Cc3cn(C)c4ccccc34)cc2CC(=O)N([C@H](C)CO)C[C@@H]1C,,inactive: 20.2%
COc1ccc(NS(=O)(=O)c2ccc3nc(COc4ccc(Cl)c(C)c4)[nH]c3c2)cc1,"inconclusive: 16.4 µM [inhibitor, single point]",
O=[N+]([O-])c1ccc(-c2nn(-c3ccccc3)cc2/C=N/n2c(-c3ccncc3)n[nH]c2=S)cc1,"inconclusive: 16.4 µM [inhibitor, partial curve, poor fit]",
COc1ccc(Cl)cc1Nc1nc(-c2sc(NC(=O)CC(C)C)nc2C)cs1,"inconclusive: 9.2 µM [inhibitor, partial curve]",
CCN(CC)S(=O)(=O)c1cccc(N=NC2=C(O)CCCC2=O)c1,,inactive: 8.05%
COc1ccc(C(=O)Oc2cc3c4c(c2)C(C)=CC(C)(C)N4C(=O)C3=O)cc1OC,"inconclusive: 2.31 µM [inhibitor, partial curve]",
CC(C)c1ccc(NC(=O)N2CCOCC2)cc1,"inconclusive: 11.2 µM [activator, partial curve, poor fit]",
CC(=O)N1CCc2c(sc(NC(=O)Cc3ccc(F)cc3)c2C(N)=O)C1,"inconclusive: 11.6 µM [activator, single point]",
COc1ccc(-c2nnc(SCC(=O)c3ccc[nH]3)o2)cc1,"inconclusive: 2.06 µM [activator, full curve]",
COc1ccc(CN(C)C(=O)/C=C/c2ccc(S(=O)(=O)N3CCCCCC3)cc2)cc1,"inconclusive: 13 µM [inhibitor, partial curve, poor fit]",

# Gathered by group, those above containing a CF3 group (two)
SMILES,Potency,"activity change, negative = inhibition"
N#CC(c1ccc(Cl)cc1)c1ccc2c(C(F)(F)F)cc(C(F)(F)F)nc2n1 (centres undefined),"inconclusive: 6.51 µM [inhibitor, partial curve]",
O=C(C[C@H]1C[C@H](C(=O)N2CCOCC2)[C@@]2(CCC3CCCC3)c3[nH]c4cc(-c5ccco5)ccc4c3CCN2C1=O)NCc1cccc(C(F)(F)F)c1,,inactive: 1.26%

# (list continues)

SMILES,Potency,"activity change, negative = inhibition"
Clc1ccc(CN2CCSCC2)c(Cl)c1,,inactive: -3.83%
O=C(NCCOc1ccccc1F)c1cc([N+](=O)[O-])ccc1N1CCOCC1,"inconclusive: 5.8 µM [inhibitor, partial curve, poor fit]",
Cc1[nH]c2ccccc2c1C1(O)C(=O)N(C(C)C)c2ccccc21 (centres undefined),,inactive: -8.36%
CCn1c(=O)c2c(nc(SCC(=O)NC3CCCC3)n2C)n(C)c1=O,,inactive: -6.73%
COc1cc2c(c(OCC(=O)NC(C)C)c1)C(=O)O[C@@H](C)CCCC(=O)CCCCC2,"inconclusive: 20.6 µM [inhibitor, single point]",
CC[C@@H]1CCCCc2ccccc2[C@@H](C(=O)C[C@H](O)CC(C)=O)OC1=O,,inactive: -3.84%
O=C(CCS(=O)(=O)c1ccccc1Cl)NC1CCCCCC1,"inconclusive: 5.17 µM [activator, single point]",
COc1cc2ncnc(NCc3cccc(F)c3F)c2cc1OC,,inactive: -3.18%
COC(=O)c1ccc2c(=O)n(Cc3ccc(C(=O)NC(C)C)cc3)c(=S)[nH]c2c1,,inactive: 9.55%
O=C(CCl)N1N=C(c2cccs2)CC1c1ccco1 (centres undefined),active: 23.1 µM,
O=C(Cc1ccc(F)cc1)N1CCC(CC2CC(c3ccc(Cl)cc3)=NO2)(C(=O)NCC2CCCCC2)CC1 (centres undefined),"inconclusive: 6.51 µM [inhibitor, single point]",
Cc1onc(-c2ccccc2Cl)c1C(=O)N1CCCCC1,,inactive: -0.0599%
O=C1CN(C(=O)C2CC2)c2ccccc2N1,"inconclusive: 1.3 µM [inhibitor, single point]",
COc1ccc(-c2c(C)[nH]n3c(=O)c(Cc4ccccc4)c(C)nc23)cc1OC,"inconclusive: 16.4 µM [inhibitor, single point]",
COc1cccc(/C=C2\NC(=O)NC2=O)c1O,"inconclusive: 14.6 µM [activator, partial curve]",
COc1ccc(/C=C/C(=O)NC(=S)NNC(=O)c2cccs2)cc1OC,"inconclusive: 16.4 µM [inhibitor, single point]",
CN1CCN(c2cc(-c3ccccc3)nc3cc(-c4ccc(F)cc4)nn23)CC1,active: 23.1 µM,
Cc1ccnc2nc(C(=O)Nc3ccc(N4CCOCC4)cc3)nn12,"inconclusive: 29.1 µM [activator, single point]",
Cc1cc(C)n(CCC(=O)N/N=C/c2c(O)ccc3ccccc23)n1,active: 3.66 µM,
O=C(CCC(=O)N1CCN(c2ccc(O)cc2)CC1)c1ccc(Br)cc1,"inconclusive: 4.61 µM [inhibitor, full curve, poor fit]",
CN1CC(=O)N2[C@H]3c4ccccc4OC[C@@H]3[C@H](c3ccccc3)[C@]2(C)C1=O,,inactive: 5.76%
CC(=O)Nc1ccccc1OCc1nnc(-c2ccc(Cl)cc2)o1,"inconclusive: 13 µM [activator, partial curve]",
CCN(CC)C(=O)COc1ccc2c(-c3ccc(OC)cc3)cc(=O)oc2c1,,inactive: -20.5%

SMILES,Potency,"activity change, negative = inhibition"
O=C(Nc1ccc(N2CCCC2)cc1)c1ccc(Br)cc1,"inconclusive: 18.3 µM [activator, single point]",
COc1ccc(CN(C)C(=O)COC(=O)c2c(-c3ccccc3Cl)noc2C)cc1,"inconclusive: 18.3 µM [inhibitor, single point]",
COc1ccc(C(CNC(=O)c2ccc(S(=O)(=O)N(C)C)cc2)N2CCCC2)cc1 (centres undefined),"inconclusive: 7.3 µM [activator, partial curve]",
O=C(COC(=O)/C=C/c1ccccc1Cl)NCC1CCCO1 (centres undefined),"inconclusive: 20.6 µM [activator, single point]",
COc1ccc(C(=O)c2c3ccc([N+](=O)[O-])cc3[n+]([O-])n2CCCN)cc1,,inactive: -19.9%
Cc1ccc(CSc2nnc(CC(=O)Nc3ccc(C)cc3)n2C)cc1,,inactive: -6.18%
C/C(=N/NC(=O)c1cccs1)c1ccc(NC(=O)COc2ccc(Cl)cc2Cl)cc1,"inconclusive: 23.1 µM [activator, partial curve]",
CCOC(=O)N1CCN(Cc2nc3cc(NC(=O)C(C)C)ccc3n2CC)CC1,"inconclusive: 18.3 µM [inhibitor, partial curve]",
Cc1ccc(NC(=S)Nc2ccccn2)c(C)c1,"inconclusive: 2.31 µM [activator, partial curve]",
Cc1ccc(C(=O)NCc2ccc3c(c2)OCO3)cc1C,"inconclusive: 18.3 µM [activator, partial curve, poor fit]",
CC1CCC2(CC1)NC(=O)N(NC(=O)c1ccc(OC(C)C)cc1)C2=O (centres undefined),,inactive: -3.07%
Cc1ccc(C)c(/C=N/Nc2nc3ccccc3c(=O)n2O)c1,,inactive: 18.9%
CN(/N=C/C=C/c1ccccc1)c1cc(=O)n(C)c(=O)[nH]1,"inconclusive: 9.2 µM [activator, partial curve]",
Cc1ccc(NC(=O)COC(=O)c2ccc([N+](=O)[O-])o2)cc1S(=O)(=O)N1CCCCC1,"inconclusive: 23.1 µM [activator, partial curve, poor fit]",
COc1cccc(CNC(=O)COc2cc(O)c3c(c2)OC(C)(C)CC3=O)c1,,inactive: -5.81%
Cc1ccc(C(Sc2ccccc2)C(Cn2cncn2)C(=O)c2ccccc2)cc1 (centres undefined),"inconclusive: 23.1 µM [inhibitor, single point]",
O=[N+]([O-])c1ccc(NC(=S)N2CCN(c3ccccc3)CC2)cc1,,inactive: 3.46%
COc1ccc(OC)c(NC(=O)Nc2nnc(N3CCC(C)CC3)s2)c1,,inactive: 8.03%
COc1ccc(S(=O)(=O)Cc2ccc(C(=O)NCc3ccc(F)cc3)o2)cc1,"inconclusive: 18.4 µM [inhibitor, partial curve]",
C[C@@H](C(=O)Nc1nc(-c2ccccn2)cs1)N1C(=O)C2CCCCC2C1=O (some centres undefined),,inactive: -23.8%
CCOc1ccccc1NC(=O)NCc1ccccn1,,inactive: -0.913%
CCOC(=O)C1CCN(C(=O)c2cc3cc(Cl)ccc3[nH]2)CC1,"inconclusive: 23.1 µM [activator, single point]",
COc1ccc(OC)c(-c2nc3c(C)n[nH]c(=O)c3[nH]2)c1,active: 6.51 µM,

# — PubChem BioAssay AID504467 (National Center for Advancing Translational Sciences (NCATS), 2011)
